Results are given in words; binding and its absence hold for the method and conditions named. In cells and extracts the contact can be indirect. For some of these results: A result given as binding can be weak or reduced; the word gives no strength. For some of these results: Tags and fused reporters may be left off the sequences shown.
Assays:
[1] = target: T1, IMPDH1-Clover (Arabidopsis thaliana) (UniProt P47996); assay: co-IP
T1 sequence: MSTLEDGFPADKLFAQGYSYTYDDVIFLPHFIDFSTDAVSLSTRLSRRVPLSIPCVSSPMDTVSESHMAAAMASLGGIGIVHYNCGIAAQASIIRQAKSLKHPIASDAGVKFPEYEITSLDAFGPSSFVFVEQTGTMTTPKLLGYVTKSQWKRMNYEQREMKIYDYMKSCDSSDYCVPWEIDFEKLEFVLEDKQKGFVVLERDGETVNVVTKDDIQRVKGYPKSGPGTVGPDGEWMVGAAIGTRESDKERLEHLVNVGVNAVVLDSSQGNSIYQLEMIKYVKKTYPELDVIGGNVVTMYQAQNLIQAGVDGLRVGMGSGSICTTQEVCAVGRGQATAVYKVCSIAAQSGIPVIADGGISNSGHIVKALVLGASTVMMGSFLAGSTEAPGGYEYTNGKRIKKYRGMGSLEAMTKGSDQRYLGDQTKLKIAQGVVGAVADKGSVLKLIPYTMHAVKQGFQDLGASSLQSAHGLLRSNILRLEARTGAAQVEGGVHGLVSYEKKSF

[2] = target: T2, NIT1-Clover (Arabidopsis thaliana) (UniProt P32961); assay: co-IP
T2 sequence: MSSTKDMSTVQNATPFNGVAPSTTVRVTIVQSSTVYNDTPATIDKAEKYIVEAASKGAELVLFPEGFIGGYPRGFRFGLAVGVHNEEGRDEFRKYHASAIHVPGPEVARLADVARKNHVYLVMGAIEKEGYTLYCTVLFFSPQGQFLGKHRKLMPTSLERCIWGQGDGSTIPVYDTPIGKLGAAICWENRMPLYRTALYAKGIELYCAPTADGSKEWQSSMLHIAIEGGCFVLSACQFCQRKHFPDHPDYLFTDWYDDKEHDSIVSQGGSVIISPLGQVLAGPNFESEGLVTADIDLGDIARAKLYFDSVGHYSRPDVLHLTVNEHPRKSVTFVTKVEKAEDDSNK

[3] = target: T3, 6XHis-GST-ATG8A (Arabidopsis thaliana) (UniProt Q8LEM4); assay: pull-down
T3 sequence: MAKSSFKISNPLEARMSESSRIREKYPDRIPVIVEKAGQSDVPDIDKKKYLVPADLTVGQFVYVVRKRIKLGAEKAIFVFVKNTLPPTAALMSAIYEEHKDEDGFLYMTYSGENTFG

[4] = target: GST-ATG8A deficient in the AIM docking site (ADS) (Arabidopsis thaliana) (UniProt Q8LEM4); assay: pull-down

With EDS1, endogenous the binding [1] was “binds” and the binding [2] was “binds”.

For “MBP-IMPDH1 Bateman domain (Arabidopsis thaliana) (domain or fragment)”, the binding [3] was “binds”.

B1: His-MBP-IMPDH1 (enzyme, UniProt P47996 1-503)
chain: T1 sequence
With B1 the binding [4] was “no binding”.

From article doi:10.1101/2024.05.06.590709 (bioRxiv, 2024)
